# Laboratory results as given in the supplement of paper PMC11438910.
# This is one part of the list. The signal is at background level for most entries.
# B1: 4-99.3 (protein)
# chain 1: QVQLQESGPGLVKPSETLSLTCAVSGYSISSGYYWGWIRQPPGKGLEYIGYISGSWGKSYYKPSLKSRVTISKDTSKNQFSLTLSSVTAADTAVYYCARRLEYVGFDVWGPGVLVTVSS
# chain 2: QAAPTQPPSVSGSPGQSVTISCTGTSSDIGYYNAVSWYQQHPGKAPKLMIYEVSKRPSGVSDRFSGSKSGNTASLTISGLQAEDEADYYCSSYAGSNTYIFGSGTRLTVL
# Assays:
# Assay in all cases: fluorescence intensity of antibody binding to polysaccharide-coupled beads; higher = stronger binding
# [1] = target: pneumococcal polysaccharide Pn2
# [2] = target: pneumococcal polysaccharide Pn20A
# [3] = target: pneumococcal polysaccharide Pn20B
# [4] = target: pneumococcal polysaccharide Pn21
# [5] = target: pneumococcal polysaccharide Pn22A
# [6] = target: pneumococcal polysaccharide Pn22F
# [7] = target: pneumococcal polysaccharide Pn23A
# [8] = target: pneumococcal polysaccharide Pn23B
# [9] = target: pneumococcal polysaccharide Pn23F
# [10] = target: pneumococcal polysaccharide Pn24A
# [11] = target: pneumococcal polysaccharide Pn24B
# [12] = target: pneumococcal polysaccharide Pn24F
# [13] = target: pneumococcal polysaccharide Pn25A
# [14] = target: pneumococcal polysaccharide Pn25F
# [15] = target: pneumococcal polysaccharide Pn27
# [16] = target: pneumococcal polysaccharide Pn28A
# [17] = target: pneumococcal polysaccharide Pn28F
# [18] = target: pneumococcal polysaccharide Pn29
# [19] = target: pneumococcal polysaccharide Pn3
# [20] = target: pneumococcal polysaccharide Pn31
# [21] = target: pneumococcal polysaccharide Pn32A
# [22] = target: pneumococcal polysaccharide Pn32F
# [23] = target: pneumococcal polysaccharide Pn33A
# [24] = target: pneumococcal polysaccharide Pn33B
# [25] = antibody concentration 2337.65 ng/mL
# [26] = antibody concentration 12500 ng/mL
# [27] = antibody concentration 0.1 ng/mL
# [28] = antibody concentration 0.534724 ng/mL
# [29] = antibody concentration 2.8593 ng/mL
# [30] = antibody concentration 15.2894 ng/mL
# [31] = antibody concentration 81.7561 ng/mL
# [32] = antibody concentration 437.17 ng/mL
binder,measurement,setting,value
B1,fluorescence intensity,[1]; [25],26 MFI
same,fluorescence intensity,[1]; [26],34.2 MFI
same,fluorescence intensity,[2]; [27],23.2 MFI
same,fluorescence intensity,[2]; [28],22 MFI
same,fluorescence intensity,[2]; [29],21.5 MFI
same,fluorescence intensity,[2]; [30],22 MFI
same,fluorescence intensity,[2]; [31],22 MFI
same,fluorescence intensity,[2]; [32],23.5 MFI
same,fluorescence intensity,[2]; [25],55.2 MFI
same,fluorescence intensity,[2]; [26],346 MFI
same,fluorescence intensity,[3]; [27],23.5 MFI
same,fluorescence intensity,[3]; [28],25 MFI
same,fluorescence intensity,[3]; [29],23.5 MFI
same,fluorescence intensity,[3]; [30],23 MFI
same,fluorescence intensity,[3]; [31],22 MFI
same,fluorescence intensity,[3]; [32],24 MFI
same,fluorescence intensity,[3]; [25],30 MFI
same,fluorescence intensity,[3]; [26],75 MFI
same,fluorescence intensity,[4]; [27],19 MFI
same,fluorescence intensity,[4]; [28],19 MFI
same,fluorescence intensity,[4]; [29],17.5 MFI
same,fluorescence intensity,[4]; [30],19 MFI
same,fluorescence intensity,[4]; [31],18.2 MFI
same,fluorescence intensity,[4]; [32],19.5 MFI
same,fluorescence intensity,[4]; [25],20 MFI
same,fluorescence intensity,[4]; [26],36 MFI
same,fluorescence intensity,[5]; [27],22 MFI
same,fluorescence intensity,[5]; [28],20 MFI
same,fluorescence intensity,[5]; [29],18.5 MFI
same,fluorescence intensity,[5]; [30],20.8 MFI
same,fluorescence intensity,[5]; [31],20 MFI
same,fluorescence intensity,[5]; [32],21 MFI
same,fluorescence intensity,[5]; [25],35.2 MFI
same,fluorescence intensity,[5]; [26],124 MFI
same,fluorescence intensity,[6]; [27],30 MFI
same,fluorescence intensity,[6]; [28],28.5 MFI
same,fluorescence intensity,[6]; [29],30.2 MFI
same,fluorescence intensity,[6]; [30],28.8 MFI
same,fluorescence intensity,[6]; [31],31.5 MFI
same,fluorescence intensity,[6]; [32],30.5 MFI
same,fluorescence intensity,[6]; [25],34.2 MFI
same,fluorescence intensity,[6]; [26],55 MFI
same,fluorescence intensity,[7]; [27],21 MFI
same,fluorescence intensity,[7]; [28],25.8 MFI
same,fluorescence intensity,[7]; [29],22.5 MFI
same,fluorescence intensity,[7]; [30],25.2 MFI
same,fluorescence intensity,[7]; [31],25.5 MFI
same,fluorescence intensity,[7]; [32],32.8 MFI
same,fluorescence intensity,[7]; [25],56.2 MFI
same,fluorescence intensity,[7]; [26],84.2 MFI
same,fluorescence intensity,[8]; [27],29.8 MFI
same,fluorescence intensity,[8]; [28],27 MFI
same,fluorescence intensity,[8]; [29],28.5 MFI
same,fluorescence intensity,[8]; [30],28.5 MFI
same,fluorescence intensity,[8]; [31],28.8 MFI
same,fluorescence intensity,[8]; [32],30.8 MFI
same,fluorescence intensity,[8]; [25],36.5 MFI
same,fluorescence intensity,[8]; [26],51 MFI
same,fluorescence intensity,[9]; [27],17.5 MFI
same,fluorescence intensity,[9]; [28],17.8 MFI
same,fluorescence intensity,[9]; [29],19.5 MFI
same,fluorescence intensity,[9]; [30],16.5 MFI
same,fluorescence intensity,[9]; [31],17.5 MFI
same,fluorescence intensity,[9]; [32],19.8 MFI
same,fluorescence intensity,[9]; [25],22 MFI
same,fluorescence intensity,[9]; [26],53 MFI
same,fluorescence intensity,[10]; [27],15.8 MFI
same,fluorescence intensity,[10]; [28],15 MFI
same,fluorescence intensity,[10]; [29],16.5 MFI
same,fluorescence intensity,[10]; [30],14 MFI
same,fluorescence intensity,[10]; [31],15.5 MFI
same,fluorescence intensity,[10]; [32],15 MFI
same,fluorescence intensity,[10]; [25],18.5 MFI
same,fluorescence intensity,[10]; [26],41.8 MFI
same,fluorescence intensity,[11]; [27],16.8 MFI
same,fluorescence intensity,[11]; [28],17.5 MFI
same,fluorescence intensity,[11]; [29],16.5 MFI
same,fluorescence intensity,[11]; [30],18.2 MFI
same,fluorescence intensity,[11]; [31],17 MFI
same,fluorescence intensity,[11]; [32],18 MFI
same,fluorescence intensity,[11]; [25],30.5 MFI
same,fluorescence intensity,[11]; [26],89.5 MFI
same,fluorescence intensity,[12]; [27],16.5 MFI
same,fluorescence intensity,[12]; [28],18.8 MFI
same,fluorescence intensity,[12]; [29],16.8 MFI
same,fluorescence intensity,[12]; [30],18.5 MFI
same,fluorescence intensity,[12]; [31],18 MFI
same,fluorescence intensity,[12]; [32],23.5 MFI
same,fluorescence intensity,[12]; [25],36 MFI
same,fluorescence intensity,[12]; [26],57.8 MFI
same,fluorescence intensity,[13]; [27],22.5 MFI
same,fluorescence intensity,[13]; [28],22.5 MFI
same,fluorescence intensity,[13]; [29],22 MFI
same,fluorescence intensity,[13]; [30],23 MFI
same,fluorescence intensity,[13]; [31],23.5 MFI
same,fluorescence intensity,[13]; [32],25.5 MFI
same,fluorescence intensity,[13]; [25],29 MFI
same,fluorescence intensity,[13]; [26],53.5 MFI
same,fluorescence intensity,[14]; [27],28 MFI
same,fluorescence intensity,[14]; [28],29 MFI
same,fluorescence intensity,[14]; [29],30 MFI
same,fluorescence intensity,[14]; [30],28 MFI
same,fluorescence intensity,[14]; [31],29.8 MFI
same,fluorescence intensity,[14]; [32],31.5 MFI
same,fluorescence intensity,[14]; [25],34 MFI
same,fluorescence intensity,[14]; [26],64.5 MFI
same,fluorescence intensity,[15]; [27],15.2 MFI
same,fluorescence intensity,[15]; [28],16 MFI
same,fluorescence intensity,[15]; [29],15 MFI
same,fluorescence intensity,[15]; [30],15.5 MFI
same,fluorescence intensity,[15]; [31],16 MFI
same,fluorescence intensity,[15]; [32],20.5 MFI
same,fluorescence intensity,[15]; [25],39.5 MFI
same,fluorescence intensity,[15]; [26],332 MFI
same,fluorescence intensity,[16]; [27],25.5 MFI
same,fluorescence intensity,[16]; [28],25 MFI
same,fluorescence intensity,[16]; [29],25.5 MFI
same,fluorescence intensity,[16]; [30],26.5 MFI
same,fluorescence intensity,[16]; [31],25.5 MFI
same,fluorescence intensity,[16]; [32],28 MFI
same,fluorescence intensity,[16]; [25],29.2 MFI
same,fluorescence intensity,[16]; [26],47.5 MFI
same,fluorescence intensity,[17]; [27],26.2 MFI
same,fluorescence intensity,[17]; [28],29 MFI
same,fluorescence intensity,[17]; [29],28 MFI
same,fluorescence intensity,[17]; [30],27 MFI
same,fluorescence intensity,[17]; [31],29 MFI
same,fluorescence intensity,[17]; [32],32 MFI
same,fluorescence intensity,[17]; [25],37.5 MFI
same,fluorescence intensity,[17]; [26],142 MFI
same,fluorescence intensity,[18]; [27],15 MFI
same,fluorescence intensity,[18]; [28],14.5 MFI
same,fluorescence intensity,[18]; [29],15 MFI
same,fluorescence intensity,[18]; [30],15.5 MFI
same,fluorescence intensity,[18]; [31],17 MFI
same,fluorescence intensity,[18]; [32],19 MFI
same,fluorescence intensity,[18]; [25],30.2 MFI
same,fluorescence intensity,[18]; [26],190 MFI
same,fluorescence intensity,[19]; [27],14.5 MFI
same,fluorescence intensity,[19]; [28],23.5 MFI
same,fluorescence intensity,[19]; [29],67 MFI
same,fluorescence intensity,[19]; [30],196 MFI
same,fluorescence intensity,[19]; [31],1010 MFI
same,fluorescence intensity,[19]; [32],4680 MFI
same,fluorescence intensity,[19]; [25],8880 MFI
same,fluorescence intensity,[19]; [26],8930 MFI
same,fluorescence intensity,[20]; [27],12.5 MFI
same,fluorescence intensity,[20]; [28],14.5 MFI
same,fluorescence intensity,[20]; [29],13 MFI
same,fluorescence intensity,[20]; [30],14.5 MFI
same,fluorescence intensity,[20]; [31],13 MFI
same,fluorescence intensity,[20]; [32],16.5 MFI
same,fluorescence intensity,[20]; [25],29 MFI
same,fluorescence intensity,[20]; [26],249 MFI
same,fluorescence intensity,[21]; [27],16 MFI
same,fluorescence intensity,[21]; [28],16 MFI
same,fluorescence intensity,[21]; [29],16.5 MFI
same,fluorescence intensity,[21]; [30],16 MFI
same,fluorescence intensity,[21]; [31],17.5 MFI
same,fluorescence intensity,[21]; [32],20.5 MFI
same,fluorescence intensity,[21]; [25],23.8 MFI
same,fluorescence intensity,[21]; [26],73.5 MFI
same,fluorescence intensity,[22]; [27],26.5 MFI
same,fluorescence intensity,[22]; [28],27 MFI
same,fluorescence intensity,[22]; [29],28 MFI
same,fluorescence intensity,[22]; [30],25.8 MFI
same,fluorescence intensity,[22]; [31],28.5 MFI
same,fluorescence intensity,[22]; [32],35.5 MFI
same,fluorescence intensity,[22]; [25],40 MFI
same,fluorescence intensity,[22]; [26],91.5 MFI
same,fluorescence intensity,[23]; [27],18.5 MFI
same,fluorescence intensity,[23]; [28],16.5 MFI
same,fluorescence intensity,[23]; [29],18 MFI
same,fluorescence intensity,[23]; [30],16.5 MFI
same,fluorescence intensity,[23]; [31],17.5 MFI
same,fluorescence intensity,[23]; [32],25.5 MFI
same,fluorescence intensity,[23]; [25],127 MFI
same,fluorescence intensity,[23]; [26],982 MFI
same,fluorescence intensity,[24]; [27],17.5 MFI
same,fluorescence intensity,[24]; [28],17 MFI

# Rewritten with bars between the fields: part of the list above.
binder | measurement | setting | value
B1 | fluorescence intensity | [5]; [32] | 21 MFI
same | fluorescence intensity | [5]; [25] | 35.2 MFI
same | fluorescence intensity | [7]; [29] | 22.5 MFI
same | fluorescence intensity | [15]; [26] | 332 MFI
same | fluorescence intensity | [17]; [29] | 28 MFI
same | fluorescence intensity | [19]; [31] | 1010 MFI
same | fluorescence intensity | [21]; [30] | 16 MFI

# Reprinted from the entries so far (2 entries):
binder,measurement,setting,value
B1,fluorescence intensity,[6]; [28],28.5 MFI
same,fluorescence intensity,[6]; [29],30.2 MFI
